Measurements: patent publication US20080207708A1, “Oxazole and Thiazole Compounds and Their Use in the Treatment of Pge2 Mediated Disorders” (GLAXO GROUP LIMITED, priority 2005, published 2008)
Structures can show the parent of a compound that is named as a salt. Some entries share one result that the patent states for a list of compounds.

Molecular target: T1, EP3 receptors (Homo sapiens, UniProt P43115)
T1 construct: expressed in transfected cells; host or cells: CHO-K1 cells, pCIN vector
T1 sequence (P43115 1-390): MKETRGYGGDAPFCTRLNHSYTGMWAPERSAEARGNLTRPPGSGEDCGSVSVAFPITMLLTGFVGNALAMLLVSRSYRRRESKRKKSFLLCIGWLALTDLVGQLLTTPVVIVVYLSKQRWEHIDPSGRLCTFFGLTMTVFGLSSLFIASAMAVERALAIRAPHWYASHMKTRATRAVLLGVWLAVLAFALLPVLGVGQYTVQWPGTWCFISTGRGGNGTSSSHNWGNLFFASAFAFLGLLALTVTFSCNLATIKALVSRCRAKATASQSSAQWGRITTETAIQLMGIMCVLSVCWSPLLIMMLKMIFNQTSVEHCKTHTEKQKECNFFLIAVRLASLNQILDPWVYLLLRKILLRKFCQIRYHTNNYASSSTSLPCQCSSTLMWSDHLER
Test: human EP3 calcium mobilisation assay (CHO-K1 cells, FLIPR, PGE2)
Type: cell-based
Conditions: free bases or sodium salts; for functional pKi value, human EP3 calcium mobilisation assay: averages of a number of experiments

Row | SMILES | activity in a functional assay (human EP3 calcium mobilisation) | functional pKi value, human EP3 calcium mobilisation assay
1 | CNC(=O)c1csc(Cc2cc(Cl)ccc2OCc2ccccc2)n1 [Example 97, 2-({5-Chloro-2-[(phenylmethyl)oxy]phenyl}methyl)-N-methyl-1,3-thiazole-4-carboxamide] | no activity | < 6.5
2 | O=C(Nc1ccccn1)c1csc(Cc2cc(Cl)ccc2OCc2ccccc2)n1 [Example 99, 2-({5-Chloro-2-[(phenylmethyl)oxy]phenyl}methyl)-N-2-pyridinyl-1,3-thiazole-4-carboxamide] | no activity | < 6.5
3 | Cl.O=C(Nc1ccc(CN2CCCCC2)cc1)c1csc(Cc2cc(Cl)ccc2OCc2ccccc2)n1 [Example 121, 2-({5-Chloro-2-[(phenylmethyl)oxy]phenyl}-methyl)-N-[4-(1-piperidinylmethyl)phenyl]-1,3-thiazole-4-carboxamidehydrochloride] | no activity | < 6.5
4 | O=C(Cc1ccccc1)Nc1csc(Cc2cc(Cl)ccc2OCc2ccccc2)n1 [Example 130, N-[2-({5-Chloro-2-[(phenylmethyl)oxy]phenyl}methyl)-1,3-thiazol-4-yl]-2-phenylacetamide] | no activity | < 6.5
5 | Cc1noc(C)c1S(=O)(=O)NC(=O)c1csc(Cc2cc(Cl)ccc2OCc2ccccc2)n1 [Example 108, 2-({5-Chloro-2-[(phenylmethyl)oxy]-phenyl}methyl)-N-[(3,5-dimethyl-4-isoxazolyl)sulfonyl]-1,3-thiazole-4-carboxamide] | no activity | < 6.5
6 | CC(C)COc1ccc(Cl)cc1Cc1nc(-c2nc3cc(CN4CCCCC4)ccc3[nH]2)co1 [Example 177, 2-[2-({5-chloro-2-[(2-methylpropyl)oxy]phenyl}methyl)-1,3-oxazol-4-yl]-5-(1-piperidinylmethyl)-1H-benzimidazoledihydrochloride] | no activity | < 6.5
7 | CC(C)COc1ccc(Cl)cc1Cc1nc(-c2nc3cc(CN4CCCC4)ccc3[nH]2)co1 [Example 176, 2-[2-({5-chloro-2-[(2-methylpropyl)oxy]phenyl}methyl)-1,3-oxazol-4-yl]-5-(1-pyrrolidinylmethyl)-1H-benzimidazoledihydrochloride] | no activity | < 6.5
8 | O=C(Nc1csc(Cc2cc(Cl)ccc2OCc2ccccc2)n1)c1ccc(CN2CCCCC2)cc1 [Example 113, N-[2-({5-Chloro-2-[(phenylmethyl)oxy]phenyl}methyl)-1,3-thiazol-4-yl]-4-(1-piperidinylmethyl)benzamide] | no activity | < 6.5
9 | O=C(NS(=O)(=O)c1ccccc1)c1csc(Cc2cc(Cl)ccc2OCc2cc(F)c(F)cc2F)n1 [Example 106, 2-[(5-Chloro-2-{[(2,4,5-trifluorophenyl)methyl]oxy}phenyl)methyl]-N-(phenylsulfonyl)-1,3-thiazole-4-carboxamide] |  | < 6.5

Other lines, results leading:

Row | activity in a functional assay (human EP3 calcium mobilisation) | functional pKi value, human EP3 calcium mobilisation assay | SMILES
10 | no activity | < 6.5 | O=C(Nc1ccccc1)c1csc(Cc2cc(Cl)ccc2OCc2ccccc2)n1 [Example 91, 2-({5-Chloro-2-[(phenylmethyl)oxy]phenyl}methyl)-N-phenyl-1,3-thiazole-4-carboxamide]
11 | no activity | < 6.5 | CC(C)COc1ccc(Cl)cc1Cc1nc(-c2nc3ccc(CN4CCCC4)cc3[nH]2)cs1.Cl [Example 123, 2-[2-({5-Chloro-2-[(2-methylpropyl)oxy]phenyl}-methyl)-1,3-thiazol-4-yl]-5-(1-pyrrolidinylmethyl)-1H-benzimidazole hydrochloride]
12 |  | < 6.5 | O=C(NS(=O)(=O)c1ccccc1)c1csc(Cc2cc(Cl)ccc2OCc2ccc(F)cc2)n1 [Example 101, 2-[(5-Chloro-2-{[(4-fluorophenyl)methyl]-oxy}phenyl)methyl]-N-(phenylsulfonyl)-1,3-thiazole-4-carboxamide]
13 |  | < 6.5 | CC(C)COc1ccc(Cl)cc1Cc1nc(-c2nc3ncccc3[nH]2)cs1 [Example 132, 2-[2-({5-Chloro-2-[(2-methyl-propyl)oxy]-phenyl}methyl)-1,3-thiazol-4-yl]-1H-imidazo[4,5-b]pyridine]
14 |  | < 6.5 | CC(C)(C(=O)[O-])c1csc(-c2cc(Br)ccc2OCc2ccccc2)n1.[Na+] [Example 49, Sodium 2-(2-{5-bromo-2-[(phenylmethyl)oxy]phenyl}-1,3-thiazol-4-yl)-2-methylpropanoate]
15 | no activity | < 6.5 | CN1CCN(CCc2ccc3nc(-c4csc(Cc5cc(Cl)ccc5OCc5ccccc5)n4)[nH]c3c2)CC1 [Example 115, 2-[2-({5-chloro-2-[(phenylmethyl)oxy]-phenyl}methyl)-1,3-thiazol-4-yl]-5-[2-(4-methyl-1-piperazinyl)ethyl]-1H-benzimidazole]
16 | no activity | < 6.5 | CC(C)COc1ccc(Cl)cc1Cc1nc(-c2nc3ccc(N4CCN(C)CC4)nc3[nH]2)cs1 [Example 146, 2-[2-({5-chloro-2-[(2-methylpropyl)oxy]phenyl}methyl)-1,3-thiazol-4-yl]-5-(4-methyl-1-piperazinyl)-1H-imidazo[4,5-b]pyridinehydrochloride]
17 | no activity | < 6.5 | Cl.O=C(Nc1ccc(CN2CCCC2)cc1)c1csc(Cc2cc(Cl)ccc2OCc2ccccc2)n1 [Example 119, 2-({5-Chloro-2-[(phenylmethyl)oxy]phenyl}-methyl)-N-[4-(1-pyrrolidinylmethyl)phenyl]-1,3-thiazole-4-carboxamidehydrochloride]
18 | no activity | < 6.5 | CC(C)COc1ccc(Cl)cc1Cc1nc(-c2nc3ccc(CN(C)C)cc3[nH]2)cs1.Cl [Example 124, ({2-[2-({5-Chloro-2-[(2-methylpropyl)oxy]phenyl}-methyl)-1,3-thiazol-4-yl]-1H-benzimidazol-5-yl}methyl)dimethylaminehydrochloride]
19 | no activity | < 6.5 | CC(C)COc1ccc(Cl)cc1Cc1nc(-c2nc3ccc(CCN(C)C)cc3[nH]2)cs1 [Example 116, (2-{2-[2-({5-Chloro-2-[(2-methylpropyl)oxy]-phenyl}methyl)-1,3-thiazol-4-yl]-1H-benzimidazol-5-yl}ethyl)dimethylamine]
20 |  | < 6.5 | CCC(=O)Nc1csc(Cc2cc(Cl)ccc2OCc2ccccc2)n1 [Example 128]
